Cleaved PARP after 72 h of treatment

Compounds and concentrations:
fludarabine, 1 µM: Nc1nc(F)nc2c1ncn2[C@@H]1O[C@H](CO)[C@@H](O)[C@@H]1O
PF-562271, 0.4 µM: CN(c1ncccc1CNc1nc(Nc2ccc3c(c2)CC(=O)N3)ncc1C(F)(F)F)S(C)(=O)=O
GW441756, 2 µM: Cn1cc(/C=C2\C(=O)Nc3cccnc32)c2ccccc21
etoposide, 0.1 µM: COc1cc([C@@H]2c3cc4c(cc3[C@@H](O[C@@H]3O[C@@H]5CO[C@@H](C)O[C@H]5[C@H](O)[C@H]3O)[C@H]3COC(=O)[C@H]23)OCO4)cc(OC)c1O
ruxolitinib, 5 µM: N#CC[C@H](C1CCCC1)n1cc(-c2ncnc3[nH]ccc23)cn1
BI-78D3, 1 µM: O=c1[nH]nc(Sc2ncc([N+](=O)[O-])s2)n1-c1ccc2c(c1)OCCO2
tanespimycin, 0.01 µM: C=CCNC1=C2C[C@@H](C)C[C@H](OC)[C@H](O)[C@@H](C)/C=C(\C)[C@H](OC(N)=O)[C@@H](OC)/C=C\C=C(/C)C(=O)NC(=CC1=O)C2=O
GW9662, 10 µM: O=C(Nc1ccccc1)c1cc([N+](=O)[O-])ccc1Cl

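Human melanoma cell lines in 1,536-well plates were treated with a pair of drugs for 72 h, then fixed, stained and imaged. Each value is the cleaved-PARP-positive fraction of nuclei relative to DMSO-treated wells, in %, so that 100 equals the control and higher values mean more apoptosis. Concentrations were fixed for each drug; these are the higher of two levels. No replicate spread is given; individual values may be noisy. The marker varies much from line to line, for technical or biological reasons.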
This is part of the screen, not chosen by result.

Combination	WM115
ruxolitinib + GW441756	1350
BI-78D3 + PF-562271	213
BI-78D3 + GW441756	21.9
tanespimycin + fludarabine	535
etoposide + ruxolitinib	68.4
etoposide + GW9662	142
tanespimycin + PF-562271	2400
ruxolitinib + PF-562271	106
GW9662 + tanespimycin	1150
fludarabine + etoposide	137
BI-78D3 + ruxolitinib	44.7
etoposide + PF-562271	178
ruxolitinib + GW9662	144
PF-562271 + GW9662	76.4
fludarabine + GW441756	104
tanespimycin + ruxolitinib	772
PF-562271 + GW441756	203
PF-562271 + fludarabine	191
tanespimycin + etoposide	1160
BI-78D3 + GW9662	129
tanespimycin + GW441756	711
BI-78D3 + fludarabine	72.2

For reference, 2 entries once more:

| Combination | WM115 |
|---|---|
| tanespimycin + PF-562271 | 2400 |
| etoposide + GW9662 | 142 |

From a melanoma drug combination screen (doi:10.1371/journal.pone.0140310); values rounded.